Assay results published in US20120309934A1, “INTRACELLUAR TARGETING BIPODAL PEPTIDE BINDER” (priority 2009, published 2012).
No constants are given. Whether binding was seen depends on the method and setting. Some entries that bind do so weakly or less than the wild type.

The chains behind the UniProt entries cited, without tags or fusion partners.
UniProt Q99836: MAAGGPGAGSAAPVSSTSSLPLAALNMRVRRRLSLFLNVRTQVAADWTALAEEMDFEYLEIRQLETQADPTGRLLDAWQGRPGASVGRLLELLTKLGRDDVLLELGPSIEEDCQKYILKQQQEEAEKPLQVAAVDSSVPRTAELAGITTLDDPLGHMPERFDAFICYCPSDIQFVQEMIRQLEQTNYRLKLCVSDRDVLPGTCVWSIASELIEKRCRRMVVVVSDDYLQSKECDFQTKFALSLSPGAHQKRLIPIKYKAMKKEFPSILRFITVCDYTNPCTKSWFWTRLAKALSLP
UniProt P40763: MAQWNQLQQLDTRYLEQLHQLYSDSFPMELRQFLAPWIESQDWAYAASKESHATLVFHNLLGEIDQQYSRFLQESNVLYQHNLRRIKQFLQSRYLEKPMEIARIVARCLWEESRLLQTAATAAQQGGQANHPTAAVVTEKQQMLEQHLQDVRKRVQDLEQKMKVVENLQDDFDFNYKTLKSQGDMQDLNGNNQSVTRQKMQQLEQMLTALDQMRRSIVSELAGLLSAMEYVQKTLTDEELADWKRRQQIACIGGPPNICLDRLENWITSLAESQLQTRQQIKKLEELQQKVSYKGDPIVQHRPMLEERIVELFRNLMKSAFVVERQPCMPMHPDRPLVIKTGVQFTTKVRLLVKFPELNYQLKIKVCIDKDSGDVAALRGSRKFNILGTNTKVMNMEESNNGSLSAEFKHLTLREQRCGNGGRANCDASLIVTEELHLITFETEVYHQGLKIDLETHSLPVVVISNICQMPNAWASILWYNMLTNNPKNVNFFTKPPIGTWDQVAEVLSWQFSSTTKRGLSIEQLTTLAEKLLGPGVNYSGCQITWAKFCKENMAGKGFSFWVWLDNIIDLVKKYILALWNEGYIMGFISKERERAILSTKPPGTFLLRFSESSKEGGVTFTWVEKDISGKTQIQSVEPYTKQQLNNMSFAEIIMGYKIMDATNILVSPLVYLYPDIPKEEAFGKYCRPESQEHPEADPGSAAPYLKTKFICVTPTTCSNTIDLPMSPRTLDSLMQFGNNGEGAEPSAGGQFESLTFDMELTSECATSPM

B1: Peptide 1 specific to MyD88 (Table 3f), bipodal-peptide binder (peptide)
peptide: HSHAFYGSWTWENGKWTWKGNPGWWT
B2: STAT3-specific bipodal-peptide binder Peptide 1 (peptide)
peptide: QAYYIPGSWTWENGKWTWKGLWGPEF
B3: STAT3-specific bipodal-peptide binder Peptide 2 (peptide)
peptide: HGFQWPGSWTWENGKWTWKGAYQFLK
B4: Peptide 2 specific to MyD88 (Table 3f), bipodal-peptide binder (peptide)
peptide: ASTINFGSWTWENGKWTWKGYTRRWN

Key:
[1] = molecular target: Human MyD88 (Santa Cruz Biotechnology sc-4540 WB) (human) (UniProt Q99836); test: phage ELISA: clones with higher absorbance than on BSA, sequenced
[2] = molecular target: Human MyD88 (Santa Cruz Biotechnology sc-4540 WB) (human) (UniProt Q99836); test: phage ELISA, absorbance at 450 nm
[3] = molecular target: Human MyD88 (Santa Cruz Biotechnology sc-4540 WB) (human) (UniProt Q99836); test: phage ELISA on a panel of coated proteins
[4] = molecular target: Human MyD88 (Santa Cruz Biotechnology sc-4540 WB) (human) (UniProt Q99836); test: phage ELISA on a panel of coated proteins, anti-M13-HRP
STAT3 protein [5] = molecular target: STAT3 protein (UniProt P40763); test: SPR (Biacore X), STAT3 on CM5 chip, peptide at 2, 5 and 7.5 µM according to the text
STAT3 protein [6] = molecular target: STAT3 protein (UniProt P40763); test: phage ELISA, absorbance at 450 nm
STAT3 protein [7] = molecular target: STAT3 protein (UniProt P40763); test: phage ELISA on STAT3 and other proteins

Binder	binding [1]	binding [2]	binding [3]	binding [4]	binding (STAT3 protein [5])	binding (STAT3 protein [6])	binding (STAT3 protein [7])
B1	binds	binds	binds	binds	–	–	–
B2	–	–	–	–	binds	binds	binds
B3	–	–	–	–	–	binds	binds
B4	binds	–	binds	–	–	–	–
